Reference: PMC1794554

By UniProt entry, the sequences of proteins in these tests, tags left out.
UniProt P03372, whole entry: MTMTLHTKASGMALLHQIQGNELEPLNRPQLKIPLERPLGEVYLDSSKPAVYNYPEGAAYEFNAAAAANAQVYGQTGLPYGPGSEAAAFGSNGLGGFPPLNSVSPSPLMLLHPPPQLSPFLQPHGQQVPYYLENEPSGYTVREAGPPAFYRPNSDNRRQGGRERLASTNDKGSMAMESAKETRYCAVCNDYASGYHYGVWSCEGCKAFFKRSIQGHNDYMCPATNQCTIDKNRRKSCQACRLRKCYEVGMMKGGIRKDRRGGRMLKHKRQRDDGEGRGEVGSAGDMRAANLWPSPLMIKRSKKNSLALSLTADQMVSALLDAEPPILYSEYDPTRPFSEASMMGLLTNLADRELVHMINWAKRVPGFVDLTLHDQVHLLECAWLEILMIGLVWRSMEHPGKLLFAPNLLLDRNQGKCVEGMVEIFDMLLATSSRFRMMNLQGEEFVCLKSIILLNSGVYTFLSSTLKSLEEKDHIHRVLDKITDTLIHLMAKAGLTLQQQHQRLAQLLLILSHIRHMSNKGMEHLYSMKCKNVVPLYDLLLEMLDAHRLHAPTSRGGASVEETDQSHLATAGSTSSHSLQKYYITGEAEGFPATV

Target: estrogen receptor alpha (ERα), purified (UniProt P03372)
Test: SPR
Details: SPR: 40 mM HEPES-KOH pH 7.4, 10 mM MgCl2, 200 mM KCl, 0.2% Triton X-100, 2 mM DTT, room temperature, ERα 58-708 nM (relative binding averaged over concentrations), label: 5'-biotin on the ERE strand

TGTGGCAACTGGTTCATTCTGATCTAGAAGCAAC (double strand) [mutant 2 (half-sites)]
binding result (significantly reduced): binds more weakly

TGTGGCAATTGGGTCATTCTGACCTAAAAGCAAC (double strand) [mutant 3 (conserved G and symmetrical C)]
binding result (further diminished versus mutant 1): binds more weakly

The exact form of at least one protein or probe is not confirmed. The comparison behind a weaker result is the experiment's own reference, which may not be listed here.
